According to publication PMC11257966:
No constants are given. Whether binding was seen depends on the method and setting.

Sequences of proteins named here, by UniProt entry; tags and fusion partners are left off. A change or cut given only in a name is not applied to a line headed by its entry.
UniProt P38863: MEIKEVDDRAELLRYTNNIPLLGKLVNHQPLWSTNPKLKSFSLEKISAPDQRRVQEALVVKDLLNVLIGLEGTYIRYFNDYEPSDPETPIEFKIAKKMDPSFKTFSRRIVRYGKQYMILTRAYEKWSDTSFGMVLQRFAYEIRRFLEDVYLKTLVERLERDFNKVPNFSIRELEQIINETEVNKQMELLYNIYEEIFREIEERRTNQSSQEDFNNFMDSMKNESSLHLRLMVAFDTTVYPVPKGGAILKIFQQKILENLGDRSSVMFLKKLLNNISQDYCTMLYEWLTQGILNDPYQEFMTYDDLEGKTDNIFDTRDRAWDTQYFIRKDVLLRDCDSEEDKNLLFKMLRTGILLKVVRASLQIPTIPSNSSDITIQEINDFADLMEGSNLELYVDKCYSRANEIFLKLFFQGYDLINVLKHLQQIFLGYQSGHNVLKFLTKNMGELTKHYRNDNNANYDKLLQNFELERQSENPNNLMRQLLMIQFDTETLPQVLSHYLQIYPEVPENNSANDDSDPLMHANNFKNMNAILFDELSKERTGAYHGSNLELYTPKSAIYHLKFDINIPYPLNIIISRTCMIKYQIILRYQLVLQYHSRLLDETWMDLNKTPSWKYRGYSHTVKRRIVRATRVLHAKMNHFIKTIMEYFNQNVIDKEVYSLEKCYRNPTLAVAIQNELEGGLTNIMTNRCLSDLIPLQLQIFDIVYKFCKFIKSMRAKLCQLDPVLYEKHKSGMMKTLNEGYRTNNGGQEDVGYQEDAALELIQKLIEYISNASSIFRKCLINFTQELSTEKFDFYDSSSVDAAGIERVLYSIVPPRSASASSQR
UniProt P53540: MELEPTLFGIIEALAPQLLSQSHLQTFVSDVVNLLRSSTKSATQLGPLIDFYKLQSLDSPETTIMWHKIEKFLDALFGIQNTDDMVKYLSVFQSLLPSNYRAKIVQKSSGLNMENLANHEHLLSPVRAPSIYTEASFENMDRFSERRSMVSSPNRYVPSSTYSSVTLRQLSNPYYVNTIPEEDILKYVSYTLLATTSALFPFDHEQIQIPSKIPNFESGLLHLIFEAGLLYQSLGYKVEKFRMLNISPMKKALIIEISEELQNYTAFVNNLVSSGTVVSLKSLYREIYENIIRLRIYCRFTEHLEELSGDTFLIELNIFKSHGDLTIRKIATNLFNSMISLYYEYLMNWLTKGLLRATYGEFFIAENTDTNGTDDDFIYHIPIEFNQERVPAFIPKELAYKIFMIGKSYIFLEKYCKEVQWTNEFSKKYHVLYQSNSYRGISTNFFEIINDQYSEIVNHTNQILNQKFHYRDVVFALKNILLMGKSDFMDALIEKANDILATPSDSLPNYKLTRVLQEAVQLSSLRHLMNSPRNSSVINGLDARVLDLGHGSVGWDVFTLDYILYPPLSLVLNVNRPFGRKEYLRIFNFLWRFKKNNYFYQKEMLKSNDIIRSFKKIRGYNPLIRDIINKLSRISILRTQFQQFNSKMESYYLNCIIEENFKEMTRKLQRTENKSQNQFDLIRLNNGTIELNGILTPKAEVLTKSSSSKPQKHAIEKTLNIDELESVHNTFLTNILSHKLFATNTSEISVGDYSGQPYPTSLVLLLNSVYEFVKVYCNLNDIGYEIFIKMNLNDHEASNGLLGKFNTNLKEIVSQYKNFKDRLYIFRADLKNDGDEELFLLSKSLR
UniProt P53378: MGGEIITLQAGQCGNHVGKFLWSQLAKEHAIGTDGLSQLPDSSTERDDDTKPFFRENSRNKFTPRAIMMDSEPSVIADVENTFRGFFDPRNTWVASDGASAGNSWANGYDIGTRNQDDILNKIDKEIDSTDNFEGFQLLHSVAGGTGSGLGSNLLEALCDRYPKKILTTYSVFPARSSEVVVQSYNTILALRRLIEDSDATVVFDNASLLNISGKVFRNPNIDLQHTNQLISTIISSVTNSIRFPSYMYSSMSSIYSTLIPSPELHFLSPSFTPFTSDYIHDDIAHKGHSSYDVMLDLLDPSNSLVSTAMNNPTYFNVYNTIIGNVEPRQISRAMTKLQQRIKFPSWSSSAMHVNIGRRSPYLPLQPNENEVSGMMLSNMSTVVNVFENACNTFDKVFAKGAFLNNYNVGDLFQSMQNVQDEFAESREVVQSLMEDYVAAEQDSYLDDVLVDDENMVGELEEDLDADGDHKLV
UniProt P32380: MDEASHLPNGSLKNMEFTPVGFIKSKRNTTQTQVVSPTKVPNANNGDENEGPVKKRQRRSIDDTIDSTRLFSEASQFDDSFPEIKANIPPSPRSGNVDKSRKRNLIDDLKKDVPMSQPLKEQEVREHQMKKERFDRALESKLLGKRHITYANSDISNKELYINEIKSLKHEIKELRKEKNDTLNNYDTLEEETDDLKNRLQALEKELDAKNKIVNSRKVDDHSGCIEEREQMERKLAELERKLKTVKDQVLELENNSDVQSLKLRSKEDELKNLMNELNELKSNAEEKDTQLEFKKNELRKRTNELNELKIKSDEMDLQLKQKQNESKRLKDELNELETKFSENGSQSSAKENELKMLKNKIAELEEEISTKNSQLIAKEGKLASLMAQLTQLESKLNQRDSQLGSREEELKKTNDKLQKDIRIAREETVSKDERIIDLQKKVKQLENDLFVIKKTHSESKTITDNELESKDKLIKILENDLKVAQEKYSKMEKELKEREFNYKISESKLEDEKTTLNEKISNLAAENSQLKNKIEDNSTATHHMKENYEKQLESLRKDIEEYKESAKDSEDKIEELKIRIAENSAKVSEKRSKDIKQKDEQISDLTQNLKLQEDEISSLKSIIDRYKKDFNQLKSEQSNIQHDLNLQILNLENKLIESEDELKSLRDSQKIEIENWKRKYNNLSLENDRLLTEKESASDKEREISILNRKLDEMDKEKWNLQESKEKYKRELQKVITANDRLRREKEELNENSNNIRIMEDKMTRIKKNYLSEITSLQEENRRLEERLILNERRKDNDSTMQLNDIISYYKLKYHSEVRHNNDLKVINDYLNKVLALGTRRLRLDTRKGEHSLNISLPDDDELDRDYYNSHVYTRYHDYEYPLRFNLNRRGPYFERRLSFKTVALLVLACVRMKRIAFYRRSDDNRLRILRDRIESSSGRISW

Legend:
[1] = target: T1, recombinant budding yeast γTuRC (composed of Spc97, Spc98, Tub4 and Spc110 amino acids 1–400, but without yeast tubulin) (S. cerevisiae) (UniProt P38863+P53540+P53378+P32380); assay: cross-linking; CLMS of recombinant Stu2 with recombinant budding yeast γTuRC, without yeast tubulin; follow-up experiment, methods not described; both purified
[2] = target: T1, recombinant budding yeast γTuRC (composed of Spc97, Spc98, Tub4 and Spc110 amino acids 1–400, but without yeast tubulin) (S. cerevisiae); assay: SEC; gel-filtration reconstitution of recombinant γTuRC with Stu2; methods not described; both purified

binding [1]: no binding | binding [2]: no binding
B1: recombinant Stu2 (protein, UniProt P46675 1-888)
chain: MSGEEEVDYTTLPLEERLTYKLWKARLEAYKELNQLFRNSVGDISRDDNIQIYWRDPTLFAQYITDSNVVAQEQAIVALNSLIDAFASSSLKNAHNITLISTWTPLLVEKGLTSSRATTKTQSMSCILSLCGLDTSITQSVELVIPFFEKKLPKLIAAAANCVYELMAAFGLTNVNVQTFLPELLKHVPQLAGHGDRNVRSQTMNLIVEIYKVTGNNSDLLEEILFKKLKPIQVKDLHKLFAKVGDEPSSSKMLFEWEKRELEKKRSQEEEARKRKSILSNDEGEYQIDKDGDTLMGMETDMPPSKQQSGVQIDTFSMLPEETILDKLPKDFQERITSSKWKDRVEALEEFWDSVLSQTKKLKSTSQNYSNLLGIYGHIIQKDANIQAVALAAQSVELICDKLKTPGFSKDYVSLVFTPLLDRTKEKKPSVIEAIRKALLTICKYYDPLASSGRNEDMLKDILEHMKHKTPQIRMECTQLFNASMKEEKDGYSTLQRYLKDEVVPIVIQIVNDTQPAIRTIGFESFAILIKIFGMNTFVKTLEHLDNLKRKKIEETVKTLPNFSIASGSTHSTIETNKQTGPMENKFLLKKSSVLPSKRVASSPLRNDNKSKVNPIGSVASASKPSMVAANNKSRVLLTSKSLATPKNVVANSTDKNEKLIEEYKYRLQKLQNDEMIWTKERQSLLEKMNNTENYKIEMIKENEMLREQLKEAQSKLNEKNIQLRSKEIDVNKLSDRVLSLENELRNMEIELDRNKKRNDTNLQSMGTISSYSIPSSTVSSNYGVKSLSSALPFKEEEDVRRKEDVNYERRSSESIGDLPHRVNSLNIRPYRKNGTGVSSVSDDLDIDFNDSFASEESYKRAAAVTSTLKARIEKMKAKSRREGTTRT
